Assay results as given in paper doi:10.1101/2023.10.13.562179.
These are yes or no findings as the source states them, for the method shown. In cells and extracts the contact can be indirect. Some binding calls cover weakened binding; strength is not graded here. For part of these data: Sequences can lack the tags named with a protein. One block for each molecule: values may come before it.

Amino acid sequences for entries named in this document (tags omitted).
UniProt Q60598: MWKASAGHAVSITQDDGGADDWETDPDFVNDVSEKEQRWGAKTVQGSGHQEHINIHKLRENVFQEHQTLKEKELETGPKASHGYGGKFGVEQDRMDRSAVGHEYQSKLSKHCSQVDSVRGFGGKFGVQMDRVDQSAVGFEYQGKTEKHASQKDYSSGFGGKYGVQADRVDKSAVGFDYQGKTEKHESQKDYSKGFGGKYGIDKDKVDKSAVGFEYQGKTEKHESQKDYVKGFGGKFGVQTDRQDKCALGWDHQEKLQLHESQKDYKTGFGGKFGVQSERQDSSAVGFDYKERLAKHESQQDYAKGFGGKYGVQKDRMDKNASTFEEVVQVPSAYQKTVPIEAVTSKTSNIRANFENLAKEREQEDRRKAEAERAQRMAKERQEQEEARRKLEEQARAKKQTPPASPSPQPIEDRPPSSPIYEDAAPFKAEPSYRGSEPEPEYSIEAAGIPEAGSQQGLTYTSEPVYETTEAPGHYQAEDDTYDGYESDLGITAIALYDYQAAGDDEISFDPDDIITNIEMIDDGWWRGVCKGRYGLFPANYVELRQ

Experiments:
αDB1-VN173 = biological target: T1, αDB1-VN173 (UniProt Q9D2N4); test: split reporter
T1 sequence: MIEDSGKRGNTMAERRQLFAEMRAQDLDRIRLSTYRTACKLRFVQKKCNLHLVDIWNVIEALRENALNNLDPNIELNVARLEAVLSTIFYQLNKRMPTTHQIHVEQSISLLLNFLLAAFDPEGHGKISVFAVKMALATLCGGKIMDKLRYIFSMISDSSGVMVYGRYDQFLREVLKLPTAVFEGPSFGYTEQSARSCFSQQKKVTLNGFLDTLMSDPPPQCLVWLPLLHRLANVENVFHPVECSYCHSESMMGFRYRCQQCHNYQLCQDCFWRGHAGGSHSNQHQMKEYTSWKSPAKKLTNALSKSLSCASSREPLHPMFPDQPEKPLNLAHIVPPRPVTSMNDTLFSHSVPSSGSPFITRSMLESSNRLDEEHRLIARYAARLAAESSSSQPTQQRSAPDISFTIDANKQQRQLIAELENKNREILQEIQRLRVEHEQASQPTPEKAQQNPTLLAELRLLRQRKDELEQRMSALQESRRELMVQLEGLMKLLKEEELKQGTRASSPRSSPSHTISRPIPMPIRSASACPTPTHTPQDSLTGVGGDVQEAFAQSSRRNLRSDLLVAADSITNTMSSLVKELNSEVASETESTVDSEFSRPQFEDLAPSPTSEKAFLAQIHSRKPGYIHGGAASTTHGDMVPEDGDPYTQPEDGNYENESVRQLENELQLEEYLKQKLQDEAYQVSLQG

αDB1-GFP = biological target: T2, αDB1-GFP (UniProt Q9D2N4); test: co-IP
T2 sequence: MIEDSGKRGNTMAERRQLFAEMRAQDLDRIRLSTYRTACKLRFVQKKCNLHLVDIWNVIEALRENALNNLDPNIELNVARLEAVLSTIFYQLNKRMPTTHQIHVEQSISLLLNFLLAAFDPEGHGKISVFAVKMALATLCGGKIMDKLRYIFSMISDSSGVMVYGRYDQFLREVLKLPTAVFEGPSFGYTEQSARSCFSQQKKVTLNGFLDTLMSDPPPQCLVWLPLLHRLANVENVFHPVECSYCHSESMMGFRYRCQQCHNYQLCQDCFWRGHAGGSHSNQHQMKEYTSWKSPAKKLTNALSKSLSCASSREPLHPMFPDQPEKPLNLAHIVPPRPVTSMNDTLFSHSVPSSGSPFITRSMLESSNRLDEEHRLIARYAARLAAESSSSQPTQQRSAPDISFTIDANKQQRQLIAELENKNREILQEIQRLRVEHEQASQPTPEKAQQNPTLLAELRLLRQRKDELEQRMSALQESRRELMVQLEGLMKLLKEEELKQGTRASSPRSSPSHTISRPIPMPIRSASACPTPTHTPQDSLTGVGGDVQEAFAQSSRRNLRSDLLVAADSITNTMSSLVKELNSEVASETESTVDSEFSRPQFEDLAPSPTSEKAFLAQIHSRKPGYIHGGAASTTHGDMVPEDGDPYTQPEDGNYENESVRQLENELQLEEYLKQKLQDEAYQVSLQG

Cttn-Flag = Cttn-Flag (UniProt Q60598); test: co-IP

- binding (αDB1-VN173): binds
Molecule: Cttn-VC155 (from UniProt Q60598 1-546)

- binding (αDB1-GFP): binds
Molecule: Cttn-Flag (from UniProt Q60598 1-546)

- binding (Cttn-Flag): binds
B1: αDB1-GFP (protein, UniProt Q9D2N4-2 1-688)
chain: MIEDSGKRGNTMAERRQLFAEMRAQDLDRIRLSTYRTACKLRFVQKKCNLHLVDIWNVIEALRENALNNLDPNIELNVARLEAVLSTIFYQLNKRMPTTHQIHVEQSISLLLNFLLAAFDPEGHGKISVFAVKMALATLCGGKIMDKLRYIFSMISDSSGVMVYGRYDQFLREVLKLPTAVFEGPSFGYTEQSARSCFSQQKKVTLNGFLDTLMSDPPPQCLVWLPLLHRLANVENVFHPVECSYCHSESMMGFRYRCQQCHNYQLCQDCFWRGHAGGSHSNQHQMKEYTSWKSPAKKLTNALSKSLSCASSREPLHPMFPDQPEKPLNLAHIVPPRPVTSMNDTLFSHSVPSSGSPFITRSMLESSNRLDEEHRLIARYAARLAAESSSSQPTQQRSAPDISFTIDANKQQRQLIAELENKNREILQEIQRLRVEHEQASQPTPEKAQQNPTLLAELRLLRQRKDELEQRMSALQESRRELMVQLEGLMKLLKEEELKQGTRASSPRSSPSHTISRPIPMPIRSASACPTPTHTPQDSLTGVGGDVQEAFAQSSRRNLRSDLLVAADSITNTMSSLVKELNSEVASETESTVDSEFSRPQFEDLAPSPTSEKAFLAQIHSRKPGYIHGGAASTTHGDMVPEDGDPYTQPEDGNYENESVRQLENELQLEEYLKQKLQDEAYQVSLQG
